Test results published in publication PMC7819943, “Rice protein-binding microarrays: a tool to detect cis-acting elements near promoter regions in rice”.
This is one part of the list.

Chains of the proteins cited; added tags and fusions are not shown.
UniProt Q0JBA9, entry or part of it: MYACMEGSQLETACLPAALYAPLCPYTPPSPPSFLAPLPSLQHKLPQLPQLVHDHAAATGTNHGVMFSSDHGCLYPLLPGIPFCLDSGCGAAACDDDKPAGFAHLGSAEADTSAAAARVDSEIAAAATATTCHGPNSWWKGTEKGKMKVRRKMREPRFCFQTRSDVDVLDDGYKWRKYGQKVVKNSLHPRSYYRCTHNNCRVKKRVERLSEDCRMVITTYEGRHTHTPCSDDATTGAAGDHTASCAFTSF

Biological target: OsWRKY34 (Oryza sativa, UniProt Q0JBA9 1-250)
Assay: protein-binding microarray (RPBM); PBS, 2% BSA, 51.3 ng/ul salmon testes DNA, 50 uM zinc acetate, 200 nM TF, 25 C, 1 h; high values mean tight binding
Details: protein: recombinant; tags: N-terminal polyhistidine and DsRed monomer fusion (pET32a); label: CyDye5-dUTP incorporated in the synthesized complementary strand; 3' TTTTT single-stranded linker to array surface; dsDNA, one strand shown
Method in brief: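 An Axon 4000B scanner gave the binding signal as per-feature fluorescence intensity in arbitrary units. This followed washing of a custom Agilent array that had been incubated for 1 h at 25 °C with 200 nM protein in PBS, 2% BSA, salmon testes DNA and 50 µM zinc acetate. The proteins were transcription factors fused at the N-terminus to polyhistidine and DsRed, expressed in E. coli BL21-CodonPlus and purified on Ni–NTA.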

“GTATCATTTTCATAAAACCCTTTCAATGTTTATGAATTTACGGAGTCACCTAGTGCAG” was tested. Which binding signal did it give?
The binding signal was 8680 fluorescence intensity (a.u.).

For “ATTGTTTGATGTGTGGGATATGTGATGGACTTTTGGCATTCGGAGTCACCTAGTGCAG”, which binding signal is on record?
Its binding signal is 8100 fluorescence intensity (a.u.).

“AAACTTAGCAAGAGCTCTGACCTATTGGAAAATTTTCTTTCGGAGTCACCTAGTGCAG” was tested. Which binding signal did it give?
Its binding signal is 9480 fluorescence intensity (a.u.).

“GTTGGGTGGGTTTCCCGTCTCCTTCCGATTGCTGAGTAGCCGGAGTCACCTAGTGCAG” was tested. Which binding signal did it give?
Its binding signal is 19100 fluorescence intensity (a.u.).

Which binding signal does the source give for “ATTTGTGGGAGCTTGTTTTAGCTTCTGCTAGAAGCTGTCCCGGAGTCACCTAGTGCAG” here?
Its binding signal is 8060 fluorescence intensity (a.u.).

With “ATGGTTGGTTTCGTGCTCTGTTTTTTTTTGGGAGAATTCGCGGAGTCACCTAGTGCAG” as the sequence, how does the binding signal read?
The binding signal was 12800 fluorescence intensity (a.u.).

How did the binding signal turn out when “TCAAGTATGGCCCTTATCCGGTGGTACTTTTGTCATTTTTCGGAGTCACCTAGTGCAG” was run?
The binding signal was 11900 fluorescence intensity (a.u.).

With “CACAATGCTATGGCTGCAACCGCTCAATTCGCCGCTCATCCGGAGTCACCTAGTGCAG” as the sequence, how does the binding signal read?
Its binding signal is 10200 fluorescence intensity (a.u.).

With “CCACTCTGCACCGAACTGGGGATCCTCTCTGCTGCATTGTCGGAGTCACCTAGTGCAG” as the sequence, how does the binding signal read?
Its binding signal is 8710 fluorescence intensity (a.u.).

How did the binding signal turn out when “CCTCCACTTCGCCAACTATCGCACCTCATCACTTCGCCATCGGAGTCACCTAGTGCAG” was run?
Its binding signal is 15100 fluorescence intensity (a.u.).

Which binding signal does the source give for “TTATTTCTTGTGCTAGTCTTGCGTTGGCTGATGCTGGAATCGGAGTCACCTAGTGCAG” here?
The binding signal was 8270 fluorescence intensity (a.u.).

With “GGCTCAACAAATAATGTGAAGATCTCTCATTTTCATTTTCCGGAGTCACCTAGTGCAG” as the sequence, how does the binding signal read?
The binding signal was 8050 fluorescence intensity (a.u.).

For “TCATTTAATTAGATCTTCATTTCCATCCAGCGTACTTAAACGGAGTCACCTAGTGCAG”, which binding signal is on record?
Its binding signal is 9140 fluorescence intensity (a.u.).

With “AACATGTATGAACATAGTTTGACTTAGTTGTCTGGTTTTTCGGAGTCACCTAGTGCAG” as the sequence, how does the binding signal read?
Its binding signal is 8470 fluorescence intensity (a.u.).

Which binding signal does the source give for “TTCATATCCTGTTTCTATAATCGATTTCCCTCCAAATCCACGGAGTCACCTAGTGCAG” here?
Its binding signal is 11000 fluorescence intensity (a.u.).

“TTACTTGCATTGTCAGTTTCCATTTGGTGTTAACATGACTCGGAGTCACCTAGTGCAG” was tested. Which binding signal did it give?
Its binding signal is 8860 fluorescence intensity (a.u.).

How did the binding signal turn out when “TACACGCTCATGTACTTCATCACCGAGGCCGCGTTCAACACGGAGTCACCTAGTGCAG” was run?
The binding signal was 11100 fluorescence intensity (a.u.).

Which binding signal does the source give for “CTAAAACCGGATCAATTGACATCCCTCGACGGTTTACATTCGGAGTCACCTAGTGCAG” here?
The binding signal was 8390 fluorescence intensity (a.u.).

With “TCTTCCTCTCGCTGCTGCTTACGATTCCTCTTCTTCTTCTCGGAGTCACCTAGTGCAG” as the sequence, how does the binding signal read?
Its binding signal is 8660 fluorescence intensity (a.u.).

How did the binding signal turn out when “AGCACTGCCCACACTGCCAAAATATGCCATATGTTATCCTCGGAGTCACCTAGTGCAG” was run?
The binding signal was 8470 fluorescence intensity (a.u.).

With “TCCTTCCTCGCGGCCGTCGCCACCTTCTTCGGCCCCGCCGCGGAGTCACCTAGTGCAG” as the sequence, how does the binding signal read?
Its binding signal is 8190 fluorescence intensity (a.u.).

Which binding signal does the source give for “TCTCTCCGCGCTCCGTGTCCGACCTTCTTCAGACTTCACACGGAGTCACCTAGTGCAG” here?
Its binding signal is 10700 fluorescence intensity (a.u.).

Which binding signal does the source give for “AATCATCCTTCTTTTGTATTTATTCTCGATCCATTTATCTCGGAGTCACCTAGTGCAG” here?
Its binding signal is 9020 fluorescence intensity (a.u.).

Which binding signal does the source give for “AACTCGCCCAATCTTCAGGTGCGGCTGCTCGCGTTCATCACGGAGTCACCTAGTGCAG” here?
The binding signal was 8110 fluorescence intensity (a.u.).

“CTTTTTAATCAACGTTTGACCATTCGTCTTATTCAATTTTCGGAGTCACCTAGTGCAG” was tested. Which binding signal did it give?
The binding signal was 10900 fluorescence intensity (a.u.).

For “GAGTTGTGTGTAGCCGCCACAGTAGTCTTTTGTCTCTTCTCGGAGTCACCTAGTGCAG”, which binding signal is on record?
Its binding signal is 9860 fluorescence intensity (a.u.).

With “GGGGTGTTTCCTCGGGTCTTAGAGGGATGGCCGTGGGCGGCGGAGTCACCTAGTGCAG” as the sequence, how does the binding signal read?
Its binding signal is 10600 fluorescence intensity (a.u.).

“TAATCTCTTGATGATTTGCTGTAACTACATTCCCTTGATACGGAGTCACCTAGTGCAG” was tested. Which binding signal did it give?
Its binding signal is 8460 fluorescence intensity (a.u.).

“TATTCTTGCCTTTTTCTTATGCTCAATTTAAACAGTCATTCGGAGTCACCTAGTGCAG” was tested. Which binding signal did it give?
The binding signal was 9490 fluorescence intensity (a.u.).

For “CTCACTCCGATGCACCTGCCCTCGCCGACTCGCCGTTAAACGGAGTCACCTAGTGCAG”, which binding signal is on record?
The binding signal was 8210 fluorescence intensity (a.u.).

Which binding signal does the source give for “TCTGTTGATCACCCAATCTAGTCTAAAATTGGTATTGCATCGGAGTCACCTAGTGCAG” here?
The binding signal was 9560 fluorescence intensity (a.u.).

How did the binding signal turn out when “TTAGGATTGCTTATATTTTGGGACGGAGGGAGGGAGTAATCGGAGTCACCTAGTGCAG” was run?
Its binding signal is 9090 fluorescence intensity (a.u.).

“TTTTGTCCGTTTGAGTTTATTTTTTATATGTTTGGTTCTTCGGAGTCACCTAGTGCAG” was tested. Which binding signal did it give?
Its binding signal is 13000 fluorescence intensity (a.u.).

Which binding signal does the source give for “TCTGTATGTTGTTTTGTCGTGGTGAAATTGTTGTTAGTATCGGAGTCACCTAGTGCAG” here?
Its binding signal is 13700 fluorescence intensity (a.u.).

Which binding signal does the source give for “TTTTTTTTCACTTTTCCATCACATTAAAACTTTCCTACACCGGAGTCACCTAGTGCAG” here?
Its binding signal is 8500 fluorescence intensity (a.u.).

“CATCCGTATTTTAATGTATGACACCGTTGACTTTTCGACTCGGAGTCACCTAGTGCAG” was tested. Which binding signal did it give?
Its binding signal is 19100 fluorescence intensity (a.u.).

Which binding signal does the source give for “CTTTTTTTTCTTAGTCAATCTTCTTAAGCTCTGACCATGTCGGAGTCACCTAGTGCAG” here?
Its binding signal is 8040 fluorescence intensity (a.u.).

How did the binding signal turn out when “CCGAAGCGTCATCGCCGGTGGCCGTATCTTCTGCGTTGACCGGAGTCACCTAGTGCAG” was run?
Its binding signal is 15300 fluorescence intensity (a.u.).

For “AATTCATTTGTCTTGGTACGCTGTTGGGGCGTAATAGGGGCGGAGTCACCTAGTGCAG”, which binding signal is on record?
The binding signal was 13200 fluorescence intensity (a.u.).

For “CTGACAATTTACTAGAGCCATCCTGCTTTGACCATAAATCCGGAGTCACCTAGTGCAG”, which binding signal is on record?
Its binding signal is 11700 fluorescence intensity (a.u.).

How did the binding signal turn out when “GTCGCGTCCCTCACTCCTCACTCCACACACCCCGCCACATCGGAGTCACCTAGTGCAG” was run?
Its binding signal is 8670 fluorescence intensity (a.u.).

“ATGCATGCAATGCACCTTGCATTGTTTTGTTTGATCGTTCCGGAGTCACCTAGTGCAG” was tested. Which binding signal did it give?
Its binding signal is 8850 fluorescence intensity (a.u.).
